Screen size: about 52,000 sequences; about 210 (0.4%) were called active.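 The calls were made as follows: active = gene whose silencing raises cell survival under the drug, median off-target-corrected z-score across its silencing RNAs 2 or more; inactive = the rest.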 This is one part of the list.

The test can be described thus: Resistance to Poly (ADP-Ribose) Polymerase inhibitor: Gene Identification via Genome-wide siRNA Screen. As to conditions: mouse BRCA2 R2336H ES cells, olaparib, CellTiter-Glo viability; active compounds read high. The procedure, abridged: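 Genome-wide siRNA screen (3 siRNAs/gene, 20 nM) in mouse ES cells carrying hypomorphic BRCA2 R2336H; olaparib 500 nM added 48 h post-transfection, CellTiter-Glo viability 72 h later. Normalized to plate-median negative control; MAD z-scores, gene median, seed-adjusted.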
In the case of GCGGUGUGCUGGAUAAUUCTT against Vit, the z-score is inactive: -1.88.

Turning to GCCAUUUGUUAGCAGUCACTT against BC018101, the z-score is inactive: 0.0704.

With GGAACCAACAGAGAAAACUTT against Hr, the z-score is inactive: 0.231.

As to CUUCCUGAGGAGAAUGUAUTT against Krt2-10, the z-score was inactive: -0.883.

As for “GCUAACACUGCGCUUGGAATT against 1700067K01Rik”, the z-score is inactive: -1.66.

In the case of GGAGAGGUAAAAAUGUUGUTT against Dnaja1, the z-score was inactive: 0.532.

For GCUCGUACACAAUGAACACTT against Jam2, the z-score was inactive: -1.27.

On to GCUGUACAAUAACAGUAUGTT against Mir16, for which the z-score is inactive: -0.538.

In the case of GCUAUGUCUCAACUGUUCATT against Trf3, the z-score was inactive: -1.01.

GCGGAAUUGGAAAAUGCCGTT against Hbs1l: the z-score is inactive: 1.42.

For GGAACUCAGAGGUGAAAGCTT against Olfr70, the z-score was inactive: 0.267.

Take GGCAUGAUCAGCACAUCACTT against Rpap1: the z-score is inactive: -0.292.

In the case of GCACAAGUAUUCUCAAAUGTT against Adcy8, the z-score was inactive: 0.471.

With “CCAAUAGCUUCCAGAAACATT against 1200009I06Rik”, the z-score was inactive: -1.8.

With GCUUGUAUGAGAUUACCUATT against Ttc1, the z-score was inactive: 0.348.

Take “GCUAGAAAGGACUUCGUGGTT against 4732472I07Rik”: the z-score is inactive: 0.972.

On to CCCGGUACUAUAAUGCCAATT against Zmynd19, for which the z-score is inactive: 0.657.

For GGACAAAUUUCUUUUCCUUTT against Atp10a, the z-score is inactive: 0.636.

Turning to GGCCAGAUUACUCACCUAUTT against Birc3, the z-score is inactive: 0.074.

With GGCUAUGCUUCUUUCCUUUTT against Cfhl1, the z-score was inactive: 0.305.

For the sequence “GGAGACCUUUCUGAAAGUCTT against A130038L21Rik”, the z-score is inactive: -0.341.

GGCAUUCCUUAACUACUACTT against Lbp: the z-score was inactive: -1.41.

In the case of GGAUGUUUGGACAAUCUAUTT against Itga4, the z-score is inactive: -0.47.

With CGUCUCCAUAGAUCUAGAUTT against Creb3, the z-score is inactive: -0.154.

As for GCUUCAACCCGGUCACACUTT against Kif6, the z-score is inactive: -0.376.

Take GGCAUCUGAACAGGCAGACTT against Acvrl1: the z-score is inactive: 1.73.

GUGUUCAGUAUGCUGGCAGTT against Klra6: the z-score was inactive: 0.684.

With GCAUCGAAAAUCUUUCCAATT against Fibcd1, the z-score was inactive: -0.194.

In the case of “CCCAGUAACUAGUUUGUAATT against A630005A06Rik”, the z-score is inactive: -0.204.

For the sequence UCUACCAUCUUUGCCUACCTT against Olfr1182, the z-score was inactive: -0.556.

For the sequence “GCUAGAGUACAGCAAGCUGTT against 2810401C16Rik”, the z-score is inactive: -0.958.

In the case of “GGCAAAAGCAGACAUUGAATT against 2610009I02Rik”, the z-score was inactive: 0.436.

Consider GGUGUCAUCCUUUACAGUUTT against Ate1, for which the z-score is inactive: -1.18.

As for GGGACAUUAUGCUUAUGACTT against Sfrs7, the z-score was inactive: -1.46.

Regarding GGUGCUUCACGUCGAUUACTT against Tdrd6, the z-score was inactive: -0.449.

Consider GGGACUGGAACAAUAGAGGTT against BC030500, for which the z-score is inactive: 0.0679.

Regarding GGGAUAAAACUCAAUAGUATT against BC043934, the z-score was inactive: 0.575.

For GGCUAUUAGAAGGAAAACUTT against Olfr8, the z-score is inactive: -0.31.

With CGCACGAGAAGACCUCUUUTT against LOC432552, the z-score is inactive: 0.117.

As to GGCAAAACUGUCGAGGUCCTT against Uck1, the z-score was inactive: 0.0586.

For GGAACAGAAACUAUUUAGATT against Zfp189, the z-score was inactive: 0.235.

On to “CCUCUUCUUGUUUCAAGGGTT against 9430028L06Rik”, for which the z-score was inactive: 0.164.

Regarding GCUACAUUUCACGACUGCGTT against Dpm3, the z-score was inactive: -0.596.

On to GGAUAAAAGUCGAAAAACATT against Mcpt1, for which the z-score is inactive: -0.387.

GGAGUGAAGGCCAGCUGAATT against Son: the z-score is inactive: -3.66.

As for GCUGCGUGUGAUUGAACCCTT against Coro2b, the z-score is inactive: -0.143.

For “GGAUGGUGACAUCAUUCCGTT against 1300017K07Rik”, the z-score is inactive: -0.749.

Turning to CCACCAGAAUCCUAACACATT against Nucb2, the z-score is inactive: 0.805.

For the sequence GCCUUUACCAGAAUUAUAGTT against Itgb3, the z-score was inactive: -0.353.

For the sequence CCACAUCUGAGACUAUUCATT against Crhr1, the z-score is inactive: -1.05.

On to GGAUAUGUUUGGUUAUUUCTT against Acbd4, for which the z-score was inactive: 0.676.

On to GGACAUUGACGCAUAGGGATT against Arsa, for which the z-score is inactive: 0.316.

Regarding GGCUGUGGAUAAAGCUAAUTT against AI838661, the z-score is inactive: 2.07.

Consider GGAUGUGCAAGGAAUCUCATT against Spint1, for which the z-score was inactive: -1.4.

GCAUUGUGCUGAUGUGCGGTT against BC002199: the z-score is inactive: 0.612.

For GCAAUUCCAAGAAAGUGUGTT against Skb1, the z-score is inactive: -2.14.

As to AAUGCUCAGAAAGAAUAACTT against Sprr2e, the z-score is inactive: -0.23.

In the case of GGUUAAGUCCCUAGGACAUTT against Blzf1, the z-score is inactive: -0.821.

“GGAAGAAGCUGAGGAAAGCTT against 4921536I21Rik”: the z-score was inactive: -1.67.

In the case of “GCUUAUGGGUGGCUUUAAGTT against 2310008H09Rik”, the z-score is inactive: 0.292.

In the case of GAAUGUUCACUGUUGGAUUTT against Olfr622, the z-score was inactive: -0.544.

AGGCAUUAUACCCAUCAGGTT against Mtvr2: the z-score was inactive: 0.825.

In the case of GCCAAAAUCAUGGUGGAGATT against Mrgpra1, the z-score is inactive: -0.159.

In the case of GGAGAGUUCUGUUUAGUUATT against Cul5, the z-score is inactive: 0.625.

As for GGAAAUGAAGGAACAUUACTT against Csmd1, the z-score is inactive: 1.57.

Regarding GGGAGGAUGUGACCUUUGATT against Tbc1d13, the z-score was inactive: -2.69.

As to GCAAAUAUAAAACUAGAGCTT against Zfp62, the z-score was inactive: 0.399.
